# PubChem BioAssay AID1224830 – NIAID | 2016
# Test: 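Regulators of TLR4 signalling towards TNF-alpha in macrophage-like cells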 (primary screen)
# Cells: human THP-1 monocytic leukaemia cells, TNF dual-luciferase reporter clone, PMA-differentiated to macrophage-like cells
# Knock-down reagent: siRNA pool against human genes, 50 nM
# Time to read-out: LPS for 4 h, given about 3 days after siRNA transfection
# Treatment: bacterial LPS (TLR4 ligand), 10 ng/ml
# Read-out: 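TNF firefly reporter luminescence divided by renilla, normalised to the plate median, then turned into a robust z-score for each replicate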
# Reading the numbers: TNF reporter robust z-score: higher = stronger TNF reporter response to LPS
# Call rule: 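Each well counts as active if its z-score is over 2.8 or under -1.5; controls are left without a call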
# The deposit covers about 18,000 reagents; below is a random part of them. About 2,900 of all reagents (16%) were called active. 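Calls are made per well; low scores hint the gene aids the LPS response, high scores that it dampens it.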 Entries without a mark were called inactive. Repeated entries: four replicate wells of each siRNA pool.
gene knocked down,TNF reporter robust z-score
C8orf34,-1.01
C8orf34,-0.05
C8orf34,-0.86
C8orf34,-0.32
RASL12,0.89
RASL12,1.51
RASL12,0.3
RASL12,1.32
KMO,-0.67
KMO,-0.4
KMO,0.16
KMO,0.87
FNDC11,-0.42
FNDC11,-0.07
FNDC11,0.06
FNDC11,0.02
USP18,-0.63
USP18,-0.81
USP18,-0.36
USP18,0.44
STX4,3.52 (active)
STX4,1.75
STX4,3.45 (active)
STX4,3.83 (active)
STON1,-1.15
STON1,-0.31
STON1,1.5
STON1,1.27
BAZ1B,0.28
BAZ1B,-1.15
BAZ1B,-0.83
BAZ1B,-2.26 (active)
FCRL1,1.52
FCRL1,0.39
FCRL1,1.66
FCRL1,0.19
PCDH10,0.02
PCDH10,-0.93
PCDH10,0.2
PCDH10,0.74
MAZ,-1.4
MAZ,0.53
MAZ,0.19
MAZ,-0.23
IER3,-0.32
IER3,0.23
IER3,-1.75 (active)
IER3,-1.21
PWWP2B,0.09
PWWP2B,-0.07
PWWP2B,-0.91
PWWP2B,-0.92
FAM131A,3.18 (active)
FAM131A,1.56
FAM131A,2.53
FAM131A,2.49
PRAMEF7,-0.29
PRAMEF7,0.01
PRAMEF7,-0.42
PRAMEF7,1.02
TMEM185A,-0.28
TMEM185A,-1.26
TMEM185A,-1.29
TMEM185A,-0.63
GDPD4,4.09 (active)
GDPD4,3.08 (active)
GDPD4,1.62
GDPD4,0
TMX1,-0.17
TMX1,0.48
TMX1,-0.28
TMX1,1.09
MED12,-0.45
MED12,1.67
MED12,1.7
MED12,2.16
TTC7B,-0.32
TTC7B,0.2
TTC7B,0.48
TTC7B,0.96
TBC1D25,-0.46
TBC1D25,1.01
TBC1D25,-0.15
TBC1D25,-1.17
RAPGEF6,0.57
RAPGEF6,0.93
RAPGEF6,0.1
RAPGEF6,0.6
ITPKC,-1.14
ITPKC,-0.05
ITPKC,0.05
ITPKC,0.27
CAPZA3,-0.17
CAPZA3,-0.34
CAPZA3,0.02
CAPZA3,0.31
IP6K2,1.11
IP6K2,2.68
IP6K2,0.85
IP6K2,4.18 (active)
SACK1B,2.01
SACK1B,2.28
SACK1B,3.34 (active)
SACK1B,2.99 (active)
IQGAP3,0.23
IQGAP3,-0.48
IQGAP3,-0.92
IQGAP3,0.51
PFN1,-1.24
PFN1,0.06
PFN1,-1.06
PFN1,-1.35
CSTF2T,0.34
CSTF2T,1.27
CSTF2T,-0.01
CSTF2T,0.36
NELFE,0.9
NELFE,0.91
NELFE,0.41
NELFE,-0.16
HOXD13,0.65
HOXD13,0.21
HOXD13,0.16
HOXD13,0.66
ZBTB25,-0.26
ZBTB25,-0.83
ZBTB25,0.55
ZBTB25,0.45
P2RX2,-0.52
P2RX2,-0.15
P2RX2,-0.14
P2RX2,-0.11
PPM1H,-0.58
PPM1H,-0.56
PPM1H,-0.25
PPM1H,-0.53
SPATA2L,1.36
SPATA2L,0.35
SPATA2L,0.78
SPATA2L,0.92

Active calls, of those listed so far:
gene knocked down,TNF reporter robust z-score
STX4,3.52 (active)
STX4,3.45 (active)
STX4,3.83 (active)
BAZ1B,-2.26 (active)
IER3,-1.75 (active)
FAM131A,3.18 (active)
GDPD4,4.09 (active)
GDPD4,3.08 (active)
IP6K2,4.18 (active)
SACK1B,3.34 (active)
SACK1B,2.99 (active)
